Experimental findings from PMC9068901 (Frontiers in Chemistry, 2022) are described below.

In one data set the test system is trypsin. In words: Activity-based probe labelling of trypsin (SDS-PAGE, Western blot, streptavidin-HRP). The conditions noted are these: probe 50 μM, 30 min, 37°C. The format is binding. How it is done:
Samples of recombinant protease (trypsin, human airway trypsin-like protease (HAT), matriptase, thrombin or neutrophil elastase, as indicated in the relevant figure legends) were treated with putative ABPs at a concentration of 50 μM, for 30 min, at 37°C. A control sample was prepared by treating recombinant protease with solvent control only. A further sample was prepared where Cbz-Arg^P(OPh)2 was added 30 min prior to the addition of the ABP under examination. […] All treated samples were then denatured with SDS-containing reducing treatment buffer (10 min at 95°C), followed by resolution by SDS-PAGE and subjected to Western blotting. Note, only stable covalent bonds between the ABP and protease active site would survive the harsh denaturing conditions involved in the resolution process. Resolved proteins were then transferred on to nitrocellulose membrane and labelled with streptavidin-HRP. The ABP-protease complex was then visualised following treatment with Luminata Forte HRP substrate.
A general note: Immunoblotting shows a protein as a band on a membrane.

A short description of data set [1]: general procedure: Fmoc solid-phase peptide synthesis; Fmoc-Lys(Mtt)-Wang resin (Bachem); Biotin-PEG NovaTag resin; DIC/HOBt. The conditions noted are these: whole synthesis, TFA salt.

As for `N=C(N)NCCCN(CC(=O)NCC(=O)NCC(=O)NCCCOCCOCCOCCCNC(=O)CCCC[C@@H]1SC[C@@H]2NC(=O)N[C@@H]21)C(=O)ON1C(=O)CCC1=O` [NAP858], the “amount of trypsin giving excellent visual detection” value in the data set on trypsin is reported as not below 200 ng.

Turning to PfpOCO-NArg-Gly-Gly-Ahx-Lys(Biotin)-OH, in data set [1] (scale 0.08 mmol), the crude mass was determined as 107.5 mg. Consider SuOCO-NArg-Gly-Gly-Ahx-Lys(Biotin)-OH, for which the crude mass in data set [1] (scale 0.1 mmol) was determined as 140 mg.

Take SuOCO-NArg-Gly-Gly-Ahx-Lys-(Epb)-OH: in data set [1] (scale 0.1 mmol), the crude mass was 37.3 mg and the crude yield stood at 37%.
